Data taken from publication PMC4996943.
Results are given in words; binding and its absence hold for the method and conditions named. Binding seen in cells or lysates may run through a third protein. Where a sequence is shown, tags or fusion partners need not be part of it.

Target: HisMax-p53 (human), P04637
Assay: pull-down; HEK293T cells co-expressing HisMax-p53 and HA-EFP (or C13/16S) or Myc-HERC5; lysates in buffer-A with 10 mM imidazole; Ni2+-NTA agarose 1 h at 4 °C, washed with 20 mM imidazole; immunoblot with anti-HA or anti-Myc
Conditions: remark: other sources report otherwise

- binding: no binding
B1: Myc-HERC5, Q9UII4 1-1024 (enzyme)
chain: MERRSRRKSRRNGRSTAGKAAATQPAKSPGAQLWLFPSAAGLHRALLRRVEVTRQLCCSPGRLAVLERGGAGVQVHQLLAGSGGARTPKCIKLGKNMKIHSVDQGAEHMLILSSDGKPFEYDNYSMKHLRFESILQEKKIIQITCGDYHSLALSKGGELFAWGQNLHGQLGVGRKFPSTTTPQIVEHLAGVPLAQISAGEAHSMALSMSGNIYSWGKNECGQLGLGHTESKDDPSLIEGLDNQKVEFVACGGSHSALLTQDGLLFTFGAGKHGQLGHNSTQNELRPCLVAELVGYRVTQIACGRWHTLAYVSDLGKVFSFGSGKDGQLGNGGTRDQLMPLPVKVSSSEELKLESHTSEKELIMIAGGNQSILLWIKKENSYVNLKRTIPTLNEGTVKRWIADVETKRWQSTKREIQEIFSSPACLTGSFLRKRRTTEMMPVYLDLNKARNIFKELTQKDWITNMITTCLKDNLLKRLPFHSPPQEALEIFFLLPECPMMHISNNWESLVVPFAKVVCKMSDQSSLVLEEYWATLQESTFSKLVQMFKTAVICQLDYWDESAEENGNVQALLEMLKKLHRVNQVKCQLPESIFQVDELLHRLNFFVEVCRRYLWKMTVDASENVQCCVIFSHFPFIFNNLSKIKLLHTDTLLKIESKKHKAYLRSAAIEEERESEFALRPTFDLTVRRNHLIEDVLNQLSQFENEDLRKELWVSFSGEIGYDLGGVKKEFFYCLFAEMIQPEYGMFMYPEGASCMWFPVKPKFEKKRYFFFGVLCGLSLFNCNVANLPFPLALFKKLLDQMPSLEDLKELSPDLGKNLQTLLDDEGDNFEEVFYIHFNVHWDRNDTNLIPNGSSITVNQTNKRDYVSKYINYIFNDSVKAVYEEFRRGFYKMCDEDIIKLFHPEELKDVIVGNTDYDWKTFEKNARYEPGYNSSHPTIVMFWKAFHKLTLEEKKKFLVFLTGTDRLQMKDLNNMKITFCCPESWNERDPIRALTCFSVLFLPKYSTMETVEEALQEAINNNRGFG
